Experimental data published in PubChem BioAssay AID652054 (National Center for Advancing Translational Sciences (NCATS), 2013).
The whole screen tested about 360,000 compounds, of which about 9,100 (2.5%) were called active. This list was built around the results that the source calls inconclusive (neither active nor inactive); the mix of calls is not that of the screen. Rule as the data show it: active = max response below about -50%; inconclusive = no clear call, values can overlap the other calls; inactive = above that.

Protein sequences, listed by entry. Tags and fused reporters are not part of them.
UniProt P35462, whole entry, looked up: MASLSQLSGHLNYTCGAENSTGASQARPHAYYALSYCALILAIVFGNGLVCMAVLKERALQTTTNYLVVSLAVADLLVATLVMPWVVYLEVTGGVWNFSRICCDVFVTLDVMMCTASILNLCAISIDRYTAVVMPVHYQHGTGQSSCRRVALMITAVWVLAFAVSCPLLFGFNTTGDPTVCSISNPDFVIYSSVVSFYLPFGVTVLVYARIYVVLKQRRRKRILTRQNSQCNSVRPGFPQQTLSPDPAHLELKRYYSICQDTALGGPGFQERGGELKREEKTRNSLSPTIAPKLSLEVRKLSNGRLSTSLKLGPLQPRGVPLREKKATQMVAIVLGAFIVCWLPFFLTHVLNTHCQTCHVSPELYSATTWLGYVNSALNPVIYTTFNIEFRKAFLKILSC

target: D(3) dopamine receptor (Homo sapiens) (UniProt P35462); experiment: qHTS of D3 Dopamine Receptor Antagonist: qHTS; details: D3R cells, DiscoveRx beta-arrestin luminescence, antagonist mode; active compounds read low
How it was run: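 Cells expressing the human receptor were seeded at 1500 cells/well, incubated overnight at 37 degrees C in 5% CO2, then exposed to library compounds with dopamine controls for 90 minutes at 37 degrees C before luminescent detection.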
% is scaled to controls: 0 for no effect and ±100 for the full control effect.

Max response, negative = inhibition, active:
Cc1c(C(=O)NCC(c2ccco2)N2CCCC2)sc2ccccc12 (stereo not given) -64.3%
O=C1c2ccccc2C(=O)c2c(O)c(O)cc(O)c21 -66.9%
COc1ccc(-n2cc(CNCCc3nc(C)cc(C)n3)c(-c3ccccc3Cl)n2)cc1 -85.4%
CC(CNC1CCCCC1)OC(=O)c1ccccc1 (stereo not given) -99.6%
CCOC(=O)N1CCC(Nc2c(Nc3ccc(F)cc3)c(=O)c2=O)CC1 -89.5%
O=C(C[n+]1cccc(CNC(=O)c2ccc(OC(F)F)cc2)c1)Nc1cc(C(F)(F)F)ccc1Cl -63.9%
O=C(N/N=C/c1cc(Cl)cc([N+](=O)[O-])c1O)C1CC1 -56.6%

Max response, negative = inhibition, inconclusive:
Cc1ccc(-c2nnn(CCOc3cccc(Br)c3)n2)cc1 -37.3%
O=C1SCC(c2ccc(Cl)cc2Cl)=NN1Cc1nnc(-c2ccccc2)o1 -32.7%
CN1CCN(c2ccc(CNC(=O)C3Cc4c(-c5ccccc5Oc5ccccc5)ccnc4O3)cc2)CC1 (stereo not given) -44.2%
CCN1CCN(C(c2nnnn2Cc2ccc3c(c2)OCO3)C(C)C)CC1 (stereo not given) -37.8%
CCOC(=O)C1=CN(Cc2cccc(Br)c2)S(=O)(=O)N(CC)C1C (stereo not given) -37.9%
NC(=S)N/N=C/c1ccccc1OCCSc1ccc(Cl)cc1 -32%
COC(=O)CC(CC(=O)OC)n1cccc1 -36.2%
CCCC(O)(CCN1CCOCC1)c1ccc(Br)cc1 (stereo not given) -42.5%
O=C1N=c2ccccc2=C1c1sc(=S)n(NC(=O)c2ccccc2)c1O -45.1%
O=C(c1cccs1)n1nc(NCc2ccccc2)nc1NCc1ccccc1 -38.8%
Cc1nnc(SCc2cc(=O)[nH]c(=S)[nH]2)s1 -33.8%
S=c1[nH]nc(C2CCCCC2)o1 -40.9%
O=C(CSc1nc2[nH]ncc2c(=O)[nH]1)Nc1ccc(Cl)c(Cl)c1 -33.4%
O=C(/C=C/c1ccccc1)c1ccc2c(c1)OCCCCO2 -42%
Cc1ccc(N2C(=O)c3ccccc3C2=O)cc1 -32.4%
CCC(C)c1ccc(NC(=S)Nc2ccc(OC)c(OC)c2)cc1 (stereo not given) -36.7%
O=C(OCc1ccccc1)N1C[C@H](O)[C@H](O)C[C@@H]1c1c(Cl)cccc1Br -36.9%
COc1cc2c(cc1NC(=S)Nc1cccc(C)c1)oc1ccccc12 -39.8%
COCCCNc1oc(COc2ccc(Cl)cc2Cl)nc1C#N -32.3%
Cc1noc(C)c1NC(=O)N(C)C[C@@H]1Oc2c(NC(=O)c3ccncc3)cccc2C(=O)N([C@H](C)CO)C[C@@H]1C -31.3%
Cc1ccc(S(=O)(=O)c2nc(Nc3nccs3)sc2Cl)cc1 -31%
NS(=O)(=O)OCCCc1ccccc1 -43.4%

Reprinted at random: 2 compounds from above
Max response, negative = inhibition, inconclusive:
CCC(C)c1ccc(NC(=S)Nc2ccc(OC)c(OC)c2)cc1 (stereo not given) -36.7%
Cc1ccc(S(=O)(=O)c2nc(Nc3nccs3)sc2Cl)cc1 -31%

Next part.

Max response, negative = inhibition, inactive:
O=C1N[C@@H](Cc2ccccc2)COC(=O)[C@@H](Cc2ccc(F)cc2)CC/C=C/C[C@H]1CC(=O)N(CCO)Cc1ccccc1 34.6%
COCCN(C(=O)C(F)(F)F)C(C(=O)NC1CCCCC1)c1ccco1 (stereo not given) 2.11%
Oc1ccc(N2CCN(c3ncnc4sc(-c5ccccc5)cc34)CC2)cc1 6.64%
CSc1ncc(Cl)c(C(=O)Nc2ccc(C)c(C)c2)n1 -10.4%
Cn1cc(/C=N/NC(=O)c2cccc([N+](=O)[O-])c2)c2ccccc21 -12.4%
C=CCN1C(=O)C(Cc2ccc(F)cc2)S/C1=N/N=C/c1ccco1 (stereo not given) -10.5%
CC(C)(Oc1ccc(Cl)cc1)C(=O)Nc1cccc(S(=O)(=O)NC2=NCCC2)c1 -16.4%
N=c1c2c(n(Cc3ccc(Cl)cc3)c3c1CCC3)CCC2 -13.2%
COc1ccc(SC[C@H](Cc2ccccc2)N2CC[C@@H](C(C)(C)C)CCC2=O)cc1 -16.9%
O=C(NN1CCOCC1)c1cn(-c2ccccc2)nc1-c1cccs1 -8.4%
Cc1ccc(NC(=O)c2nc[nH]c2C(=O)NCCCCCCNC(=O)c2[nH]cnc2C(=O)Nc2ccc(C)cc2)cc1 -3.41%
O=C(Nc1ccc2c(c1)OCCO2)N1CCN(c2ccc(F)cc2)CC1 -7.61%
COc1ccccc1N1CCN(S(=O)(=O)CCNC(=O)Cc2ccc(F)cc2)CC1 -18.3%
O=C(Nc1ccc2oc(=O)ccc2c1)c1ccc(-c2cccc(Cl)c2)o1 4.98%
O=C(NCC(c1ccc(F)cc1)N1CCOCC1)c1ccc(C(=O)c2ccccc2)cc1 (stereo not given) -19.2%
COc1ccc(-c2cc3ccccc3nc2N)cc1OC 11.8%
